# Data from US20250361295A1.
# B1: 44-F10-B6-D4 (antibody, V domains shown)
# VH: EVHLVESGGGLVKPGGSLKLSCAASGFTFSSYAMSWVRQTPEKRLEWVATISSGGSYIYYPDSVKGRFTISRDNAKNTLYLQMSSLRSEDTAMYYCARQDWDGGDYYAMDYWGQGTSVTVSS
# VL: DIVMTQSPSSLAVSAGEKVTMSCKSSQSVLYSSNQKNFLAWYQQKPGQSPKLLIYWASTRESGVPDRFTGSGSGTDFTLTISSVQAEDLAVYYCHQYLSSLTFGAGTKLELK
# B2: ch44-F10-B6-D4 (antibody, V domains shown)
# VH: B1 VH
# VL: B1 VL
# B3: 25-G9-G4-C12 (antibody, V domains shown)
# VH: EVQLVESGGDLVKPGGSLKLSCAASGFTFSSHGMSWVRQTPDKRLEWVATINSGGYYTYYPDSVKGRFTISRDNAKNTLYLQMSSLKSEDTAMYYCARGQLGNWYFDVWGAGTTVTVSS
# VL: DIVMTQSPAIMSASPGEKVTITCSASSSVSYMHWFQQKPGTSPKLWIYSTSNLASGVPARFSGSGSGTSYSLTISRMEAEDAATYYCQQRSSYPLTFGAGTKLELK
# B4: 42-C8-A12-F3-D11 (antibody, V domains shown)
# VH: B3 VH with Q3H, N52S, Y56I, Y60H, T69S, N77K, A92G, M93I, A97T, L101V
# VL: B3 VL with M4I, T22N, K38T, S69F
# B5: 48-E11-H7-B5 (antibody, V domains shown)
# VH: EVQLVESGGGLVKPGGSLKLSCAASGFTFSSYAMSWVRQTPEKRLEWVASITIGDDTYYPDSVKGRFTISRDHAKNILYLQVSSLRSEDTAMYSCARGVNSYGSSYRYFDVWGAGTTVTVSS
# VL: DIVMTQSHKFMSTSVGDRVSITCKASQDVSTAVAWYQQKPGQSPKLLIYWASTRHTGVPDRFTGSGSGTDYTLTISSVQAEDLALYYCQQHYSIPFTFGAGTKLEK
# B6: 10-H9-E3-G3 (antibody, V domains shown)
# VH: EVQRVESGGGLVQPGGSRKLSCAASGFTFSSFGMHWVRQAPEKGLEWVAYISSGSSAMYYADTVKGRFTISRDNPKNTLFLQMTSLRSEDTAMYYCARSDGKGAMDYWGQGTSVTVSS
# VL: DIQMTQTTSSLSASLGDRVTISCRASQDISNYLNWYQQKPDGTVKLLVYYTSRLHSGVPSRFSGSGSGTDYSLTISNLEQEDIATYFCQQGNTLPWTFGGGTKLEIK
# B7: 2-H1-D7-E5-D5 (antibody, V domains shown)
# VH: B6 VH with Q3H, R4L, A40P, A57S, M58I, S99G, D100T, K102T
# VL: B6 VL with A25T, V48I, R53K, E79D
# B8: ch27-F11-E10-G10 (antibody, V domains shown)
# VH: B6 VH with R4L, A57T, M58I, T69S, Y94F, D100T, K102T
# VL: B6 VL with V48I, I106L
# B9: 26-H9-B9-B7 (antibody, V domains shown)
# VH: B6 VH with A57T, M58I
# VL: B6 VL with Q3V, T7S, V48I
# B10: 27-D11-C2-A10 (antibody, V domains shown)
# VH: B6 VH with R4L, S31V, M34V, S56N, A57T, M58I, Y59H, N74I, D100S, K102T
# VL: B6 VL with T7S, T20S, T43A, V48I, E79D, I106L
# B11: 25-E7-A10-H6 (antibody, V domains shown)
# VH: B6 VH with R4L, S31T, A57T, M58I, D100T, K102T
# VL: B6 VL with N31K, V48I
# B12: 8-B3-F6-H8 (antibody, V domains shown)
# VH: EVKVIESGGGLVQPGGSLKLSCAASGFDFSRYWMSWVRQAPGKGLEWIGEINPDSSAINYTPSLKDKFIISRDNAKNTLYLQMSKVRSEDTALYYCATSMTMDYWGQGTSVTVSS
# VL: DIVMTQSPSSMYASLGERVTITCKASQDIKSYLSWYQQKPWKSPKTLIYYATSLADGVPSRFSGSGSGQDYSLTISSLESDDTATYYCLQHGESPYTFGGGTKLEK
# B13: 7-B4-C1-C9 (antibody, V domains shown)
# VH: EVQLQQSGTELVKPGASVKLSCKASGYTFTNYWMHWVKQRPGQGLEWIGEINPSNGRTNYNEKFKTKATLTVDKSSSTAYMQLSSLTSEDSAVYYCARSTYYGYDWYFDVWGAGTTVTVSS
# VL: DIVLTQSPSSMYASLGERVTITCKASQDINSYLSWFQQKPGKSPKTLIYRANRLLDGVPSRFSGGGSGQDYSLTISSLEHEDMGIYYCLQCDEFPHTFGGGTKLEIK
# B14: 2-H8-C9-F7-E2 (antibody, V domains shown)
# VH: EVQLQQSGAELVKPGASVKLSCKASGYTFTNYWMHWVKQRPGQGLEWIGEINPSNGRTNYNEKFKSKATLTVDKSSSTAYMQLSSLTSEDSAVYYCARGSLTTVVPFDYWGQGTTLTVSS
# VL: DIQMTQTPSSLSASLGGKVTITCKASQDINNYIAWYQHKPGKGPRLLIHYTSTLQPGIPSRFSGSGSGRDYSFSISNLEPEDIATYFCLQYDILLTFGGGTKLEK
# B15: 43-D12-F3-G11 (antibody, V domains shown)
# VH: EVQVVESGPGLVAPSQSLSITCTVSGFSLTSYGVSWVRQPPGKGLEWLGVIWADGSTNYHSALLSRLSISKDNSKSQVFLKLNSLQTDDTATYYCAKGHWDGFAYWGQGTLVAVSA
# VL: DIVLTQSPAIMSTSPGEKVTLTCSASSSITSSYLYWYQQKPGSSPKLWIYSTSNLASGVPARFSGSGSGTSYYLTISSMEAEDAASYFCHQWSSYPPTFGGGTKLELK
# B16: ch43-D12-F3-G11 (antibody, V domains shown)
# VH: B15 VH
# VL: B15 VL
# B17: 36-F4-H1-D9 (antibody, V domains shown)
# VH: EVKLLESGGGLVQPGGSLKLSCAASGFDFSRYWMIWVRQAPEKGLEWIGEINPDSSTINYTPSLKDKFIISRDNAKNTLYLQMSKVRSEDTALYYCARPYYRYDVGYFDVWGAGTTVTVSS
# VL: DIVMTQAPKVLLVSAGDRVTISCKASQSVSNAVVWYQQKPGQSPKLLIFYASNRYTGVPDRFTGSGYGTDFTFSISTVQAEDLAVYFCQQDYSSPWTFGGGTKLEIK
# B18: ch36-F4-H1-D9 (antibody, V domains shown)
# VH: B17 VH
# VL: B17 VL
# Target: cynomolgus (Macaca fascicularis) LILRB4 (cynomolgus (Macaca fascicularis))
# Assay: FACS, CHO-S-cynoLILRB4 cells
row,binding,Binder
1,binds,B1
2,binds,B2
3,no binding,B3
4,no binding,B4
5,no binding,B5
6,no binding,B6
7,no binding,B7
8,no binding (tested: up to 66.67 nM),B8
9,no binding,B9
10,no binding,B10
11,no binding,B11
12,no binding,B12
13,no binding,B13
14,no binding,B14
15,no binding,B15
16,no binding (tested: up to 66.67 nM),B16
17,no binding,B17
18,no binding (tested: up to 66.67 nM),B18

# Substitutions are numbered along the chain they refer to. These are yes or no findings as the source states them, for the method shown. Binding calls can cover weak binding; strength is not graded here.
